Laboratory results reported in paper PMC10508264, “Exploring the antioxidant, antimicrobial, cytotoxic and biothermodynamic properties of novel morpholine derivative bioactive Mn(II), Co(II) and Ni(II) complexes – combined experimental and theoretical measurements towards DNA/BSA/SARS-CoV-2 3CL^Pro” (RSC Medicinal Chemistry, 2023).

Test system: CT-DNA
Assay: DNA binding by UV-vis absorption titration
Details: for Gibbs free energy change of DNA binding, BH-I / Gibbs free energy change of DNA binding, BH-II / Gibbs free energy change of DNA binding, SK-I / Gibbs free energy change of DNA binding, SK-II / Gibbs free energy change of DNA binding, WS-I / Gibbs free energy change of DNA binding, WS-II: T = 298 K; for Δλ nm (red shift on DNA binding): Tris-HCl pH 7.4, 25 °C
Experimental: The DNA-binding experiment was conducted with an electronic absorption spectrophotometer by raising the DNA concentration from zero to 50 μM to the given concentration of all samples (50 μM) in Tris-HCl buffer (5 mM Tris-HCl/50 mM NaCl) with a pH of 7.4 at 25 °C.[13,23–26]
Most medications involve intercalation and groove binding via GC (guanine/cytosine)-rich and AT (adenine/thymine)-rich domains, respectively. The interactions were determined experimentally by electronic absorption spectrum titration. Moreover, intercalating binding is indicated by bathochromic and hypochromic shifts in the absorption spectra, whereas groove binding of the complexes with DNA is indicated by hyperchromic shifts in the titration curve.[61] Generally, four kinds of non-covalent engagements that can be absolutely critical in the interaction of substances with DNA are most frequently illustrated in the literature: (i) involves a negatively charged phosphate fragment as a result of electrostatic interaction; (ii) influences weak van der Waals force attraction/H-bonding; (iii) interaction of a functional moiety with the grooves (major/minor) of the double-stranded DNA as a result of a molecule sticking due to general attraction, or as a result of water or H-bonding expulsion, etc.; (iv) the stacked base pairs of natural DNA are intercalated by hydrophobic forces. Nevertheless, substances are engaged in the reaction because of […] preferred N-7 position and adenine's N-3 location in DNA. The DNA base pairing may also be prevented due to miscoding. All complexes (1–3), including free ligand (HL), were measured both when DNA was present and when it was absent using ultraviolet–visible spectrophotometric absorption titrations in buffer solution with a pH of 7.4 at 25 °C (Fig. 3). In this case, all substances were exposed to two prominent electronic absorption bands of about 260 nm and 335–343 nm, consequent to the π–π* transitions of the phenyl chromophore and MLCT, respectively. While the amount of DNA in each compound rises, the interaction of the chemical substance with DNA base pairs generates noticeable alterations in the strength and wavelength of the intra-ligand charge transfer bands. […] Using Wolfe–Shimmer eqn (1) and (2), Benesi–Hildebrand eqn (3) and (4) and Sakthi–Krause eqn (5) and (6), the observed overall Kb values for all samples were in the following sequence: (2) > (3) > (1) > (HL). […] It is concluded that the co-planarity of the morpholine-linked ligand and complexation of the 2,2′-bipyridine aromatic system with the metal centre promote the ability of the complex to infiltrate DNA base pairs smoothly. Large aromatic systems may also assist the complex to deeply penetrate the core of the phosphate backbone, and those substances may permit the complex to freely penetrate deep into the DNA base pairs. […] The Wolfe–Shimmer eqn (1) and (2),[62] Benesi–Hildebrand eqn (3) and (4),[63] and Sakthi–Krause eqn (5) and (6) were applied to evaluate the Kb results for all samples, which were obtained by modification of the Lineweaver–Burk and Stern–Volmer equations (Table 1).
The Kb values were measured using the Wolfe–Shimmer eqn (1) and (2) from the linear regression plots of [DNA]/(εa − εf) vs. [DNA] M^−1 for method I and (εb − εf)/(εa − εf) vs. 1/[DNA] M^−1 for method II, respectively (Fig. S15 ^†). The Benesi–Hildebrand binding constant (Kb) values were measured using eqn (3) and (4) from the linear regression plots of [1/(Ax − A0)] vs. {1/[DNA]} M^−1 for method I and [(Amax − A0)/(Ax − A0)] vs. {1/[DNA]} M^−1 for method II, respectively (Fig. S16 ^†). The Kb values were estimated using Sakthi–Krause eqn (5) and (6) from the linear regression plots of [A/(A0 − A)] vs. {1/[DNA]} M^−1 for method I (Fig. S17 ^†) and {1/[DNA]} vs. log[A/(A0 − A)] M^−1 for method II (Fig. S18 ^†). In addition, A0 and A represent the absorbance intensity values in the absence and presence of [DNA], respectively. […]

Compound | Gibbs free energy change of DNA binding, BH-I | Gibbs free energy change of DNA binding, BH-II | Gibbs free energy change of DNA binding, SK-I | Gibbs free energy change of DNA binding, SK-II | Gibbs free energy change of DNA binding, WS-I | Gibbs free energy change of DNA binding, WS-II | Δλ nm (red shift on DNA binding)
[Mn+2].[O-]c1ccccc1N=Cc1ccc(N2CCOCC2)cc1.[O-]c1ccccc1N=Cc1ccc(N2CCOCC2)cc1.c1ccc(-c2ccccn2)nc1 [(1)] | -5.449 kcal/mol | -5.896 kcal/mol | -5.514 kcal/mol | -5.875 kcal/mol | -5.808 kcal/mol | -5.889 kcal/mol | 04 nm
[Co+2].[O-]c1ccccc1N=Cc1ccc(N2CCOCC2)cc1.[O-]c1ccccc1N=Cc1ccc(N2CCOCC2)cc1.c1ccc(-c2ccccn2)nc1 [(2)] | -5.48 kcal/mol | -5.908 kcal/mol | -5.693 kcal/mol | -5.935 kcal/mol | -5.827 kcal/mol | -5.903 kcal/mol | 04 nm
[Ni+2].[O-]c1ccccc1N=Cc1ccc(N2CCOCC2)cc1.[O-]c1ccccc1N=Cc1ccc(N2CCOCC2)cc1.c1ccc(-c2ccccn2)nc1 [(3)] | -5.808 kcal/mol | -5.891 kcal/mol | -5.609 kcal/mol | -5.877 kcal/mol | -5.808 kcal/mol | -5.901 kcal/mol | 05 nm
Oc1ccccc1N=Cc1ccc(N2CCOCC2)cc1 [(HL), 2-(4-morpholinobenzylideneamino)phenol] | -5.151 kcal/mol | -5.851 kcal/mol | -5.378 kcal/mol | -5.779 kcal/mol | -5.7 kcal/mol | -5.712 kcal/mol | 04 nm
